Literature values, collected in PMC10778980, “Profiling Novel Quinuclidine-Based Derivatives as Potential Anticholinesterase Drugs: Enzyme Inhibition and Effects on Cell Viability” (International Journal of Molecular Sciences, 2023).
Read-outs that look alike come from different tables or passages of the source.

Tests used:
SH-SY5Y cells = settings: 4 h exposure; controls; read-out: IC50 ± SE SH-SY5Y 4 h; cited from earlier work
HepG2 cells = settings: controls, cited from earlier work

Structure (SMILES): CN[C@@H]1C[C@H]2O[C@@](C)([C@@H]1OC)n1c3ccccc3c3c4c(c5c6ccccc6n2c5c31)C(=O)NC4 [SS, staurosporine]
- IC50 (SH-SY5Y cells): 3000 ± 10 nM
- IC50 (HepG2 cells; 1 h exposure, read-out: IC50 ± SE HepG2 1 h): ≥ 2000 nM
- IC50 (HepG2 cells; 4 h exposure, read-out: IC50 ± SE HepG2 4 h): ≥ 2000 nM
- IC50 (HepG2 cells; 24 h exposure, read-out: IC50 ± SE HepG2 24 h): ≥ 2000 nM
